For 2 molecules, binding results are on record in publication PMC12346307.

Amino acid sequences for entries named in this document (tags omitted).
UniProt Q9V9J3: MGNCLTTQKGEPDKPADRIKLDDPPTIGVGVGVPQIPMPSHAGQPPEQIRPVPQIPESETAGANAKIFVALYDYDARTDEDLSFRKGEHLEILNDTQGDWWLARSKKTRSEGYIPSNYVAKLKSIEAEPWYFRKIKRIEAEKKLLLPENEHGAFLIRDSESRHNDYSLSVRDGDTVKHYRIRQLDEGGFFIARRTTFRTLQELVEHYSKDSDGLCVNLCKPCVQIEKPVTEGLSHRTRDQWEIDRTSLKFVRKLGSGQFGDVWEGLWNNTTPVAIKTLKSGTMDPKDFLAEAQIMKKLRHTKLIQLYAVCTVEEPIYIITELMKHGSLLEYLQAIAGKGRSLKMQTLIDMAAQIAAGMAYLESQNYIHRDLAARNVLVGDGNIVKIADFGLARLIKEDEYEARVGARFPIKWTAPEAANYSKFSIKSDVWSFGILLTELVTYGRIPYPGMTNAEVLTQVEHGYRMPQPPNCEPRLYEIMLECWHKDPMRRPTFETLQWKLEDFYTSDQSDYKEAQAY

These are yes or no findings as the source states them, for the method shown. In cells and extracts the contact can be indirect. Some binding calls cover weakened binding; strength is not graded here. Where a sequence is shown, tags or fusion partners need not be part of it.

In the test the target is T1, Myc-tagged Ephrin (Ephrin-Myc), full length (Drosophila) (UniProt Q9V4E1).
T1 sequence: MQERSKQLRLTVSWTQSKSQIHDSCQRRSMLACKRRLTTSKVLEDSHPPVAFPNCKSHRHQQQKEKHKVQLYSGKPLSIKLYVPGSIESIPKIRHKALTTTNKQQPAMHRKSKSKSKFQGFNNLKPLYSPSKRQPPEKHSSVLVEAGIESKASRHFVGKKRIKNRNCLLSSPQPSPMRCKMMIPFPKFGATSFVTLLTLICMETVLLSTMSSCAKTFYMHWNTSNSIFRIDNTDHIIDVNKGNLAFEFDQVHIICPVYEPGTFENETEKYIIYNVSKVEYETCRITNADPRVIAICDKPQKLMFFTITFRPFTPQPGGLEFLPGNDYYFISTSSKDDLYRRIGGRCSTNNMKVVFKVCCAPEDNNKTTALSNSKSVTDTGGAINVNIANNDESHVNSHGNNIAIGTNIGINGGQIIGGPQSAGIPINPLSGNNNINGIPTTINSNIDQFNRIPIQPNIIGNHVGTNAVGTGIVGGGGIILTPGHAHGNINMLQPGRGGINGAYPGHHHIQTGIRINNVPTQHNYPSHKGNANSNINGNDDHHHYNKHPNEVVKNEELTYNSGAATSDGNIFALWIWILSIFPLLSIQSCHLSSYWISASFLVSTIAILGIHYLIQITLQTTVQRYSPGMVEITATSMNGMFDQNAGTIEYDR
Put plainly: co-IP; anti-Myc-tag antibody magnetic beads on lysates of dissected fly brains expressing Ephrin-Myc or EphrinCD-Myc; lysis buffer with protease inhibitor cocktail, with or without phosphatase inhibitor, 1 mM PMSF, 10 mM NaF; endogenous partners detected by Western blotting.

On to “Src42A, endogenous (from UniProt Q9V9J3 1-517) (enzyme)”, for which the binding result is recorded as “binds”.

B1: Fasciclin 2 (Fas2), endogenous (protein, UniProt P34082 29-873)
chain: QSPILEIYPKQEVQRKPVGKPLILTCRPTVPEPSLVADLQWKDNRNNTILPKPNGRNQPPMYTETLPGESLALMITSLSVEMGGKYYCTASYANTEILEKGVTIKTYVAITWTNAPENQYPTLGQDYVVMCEVKADPNPTIDWLRNGDPIRTTNDKYVVQTNGLLIRNVQESDEGIYTCRAAVIETGELLERTIRVEVFIQPEIISLPTNLEAVEGKPFAANCTARGKPVPEISWIRDATQLNVATADRFQVNPQTGLVTISSVSQDDYGTYTCLAKNRAGVVDQKTKLNVLVRPQIYELYNVTGARTKEIAITCRAKGRPAPAITFRRWGTQEEYTNGQQDDDPRIILEPNFDEERGESTGTLRISNAERSDDGLYQCIARNKGADAYKTGHITVEFAPDFSHMKELPPVFSWEQRKANLSCLAMGIPNATIEWHWNGRKIKDLYDTNLKIVGTGPRSDLIVHPVTRQYYSGYKCIATNIHGTAEHDMQLKEARVPDFVSEAKPSQLTATTMTFDIRGPSTELGLPILAYSVQYKEALNPDWSTAYNRSWSPDSPYIVEGLRPQTEYSFRFAARNQVGLGNWGVNQQQSTPRRSAPEEPKPLHNPVQHDKEEPVVVSPYSDHFELRWGVPADNGEPIDRYQIKYCPGVKISGTWTELENSCNTVEVMETTSFEMTQLVGNTYYRIELKAHNAIGYSSPASIIMKTTRGIDVIQVAERQVFSSAAIVGIAIGGVLLLLFVVDLLCCITVHMGVMATMCRKAKRSPSEIDDEAKLGSGQLVKEPPPSPLPLPPPVKLGGSPMSTPLDEKEPLRTPTGSIKQNSTIEFDGRFVHSRSGEIIGKNSAV
In the case of B1, the binding entry is on record as “binds”.
